From patent US20060030585A1, “Tricyclic delta-opioid modulators” (priority 2004, published 2006)
For part of its entries the source gives two or more results. They are shown here; other results are not. The source may hold further records. Values that stand side by side do not match, cause unknown; dose, time, organism, isomer or construct need not be as stated for each record.

Amino acid sequences for entries named in this document (tags omitted).
UniProt P33535, whole entry: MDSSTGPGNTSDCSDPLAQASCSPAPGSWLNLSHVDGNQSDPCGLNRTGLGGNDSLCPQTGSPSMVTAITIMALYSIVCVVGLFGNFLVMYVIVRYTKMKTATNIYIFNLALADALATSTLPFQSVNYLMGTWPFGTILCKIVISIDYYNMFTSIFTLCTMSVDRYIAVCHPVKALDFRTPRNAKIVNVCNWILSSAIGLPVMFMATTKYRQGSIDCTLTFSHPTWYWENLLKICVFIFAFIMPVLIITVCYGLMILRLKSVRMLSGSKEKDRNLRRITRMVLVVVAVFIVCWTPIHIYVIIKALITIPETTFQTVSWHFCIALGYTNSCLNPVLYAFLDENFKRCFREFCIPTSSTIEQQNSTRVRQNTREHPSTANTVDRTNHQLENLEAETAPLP

Target: mu opioid receptor (Rattus norvegicus, UniProt P33535)
Assay: Rat brain mu opioid receptor binding assay ([3H]DAMGO)
Details: read-out: MOR Ki; Rat mu opioid receptor binding constant; rat forebrain membranes, ~0.8 nM [3H]DAMGO

c1ccc2c(c1)Oc1cc(-c3nnn[nH]3)ccc1C2=C1CC2CCC(C1)N2 (single isomer, unassigned)
Ki: 7.52 µM and 2.57 µM

Oc1cccc2c1Oc1cc(-c3nnn[nH]3)ccc1C2=C1CC2CCC(C1)N2 [Cpd 90]
Ki: 0.7 nM and 6 nM
